Test results reported in paper PMC8954747 (Viruses, 2022).
These are yes or no findings as the source states them, for the method shown.

Chains of the proteins cited; added tags and fusions are not shown. Residues count along the entry.
UniProt Q14160, residues 1099-1203: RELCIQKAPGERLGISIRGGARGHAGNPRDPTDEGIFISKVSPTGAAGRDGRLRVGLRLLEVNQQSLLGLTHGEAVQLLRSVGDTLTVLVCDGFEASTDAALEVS

Target: human Scribble (SCRIB) PDZ4 domain (residues 1099-1203) (human) (UniProt Q14160)
Experiment: ITC; both purified

B1: NS1 ESKV PBM peptide KMARTIESKV (H5N1 A/chicken/Hubei/327/2004), 10-mer (peptide)
peptide: KMARTIESKV
In the case of B1, the binding is reported as “no binding (tested: peptide 900 µM, PDZ domain ~75 µM)”.
